Test results reported in paper PMC13371181, “A paracrine-to-autocrine shunt of GREM1 fuels colorectal cancer metastasis via ACVR1C” (Molecular Cancer, 2026).
Results are given in words; binding and its absence hold for the method and conditions named. In cells and extracts the contact can be indirect. Sequences can lack the tags named with a protein. Blank lines part the entries; values can stand above or below the molecule they belong to.

How the values were obtained:
[1] = biological target: T1, Flag-GFP-tagged ACVR1C (human) (UniProt Q8NER5); assay: co-IP; HCT116 cells transfected with truncation or point mutants of GREM1 or ACVR1C and the binding partner; NP40 lysis buffer
T1 sequence: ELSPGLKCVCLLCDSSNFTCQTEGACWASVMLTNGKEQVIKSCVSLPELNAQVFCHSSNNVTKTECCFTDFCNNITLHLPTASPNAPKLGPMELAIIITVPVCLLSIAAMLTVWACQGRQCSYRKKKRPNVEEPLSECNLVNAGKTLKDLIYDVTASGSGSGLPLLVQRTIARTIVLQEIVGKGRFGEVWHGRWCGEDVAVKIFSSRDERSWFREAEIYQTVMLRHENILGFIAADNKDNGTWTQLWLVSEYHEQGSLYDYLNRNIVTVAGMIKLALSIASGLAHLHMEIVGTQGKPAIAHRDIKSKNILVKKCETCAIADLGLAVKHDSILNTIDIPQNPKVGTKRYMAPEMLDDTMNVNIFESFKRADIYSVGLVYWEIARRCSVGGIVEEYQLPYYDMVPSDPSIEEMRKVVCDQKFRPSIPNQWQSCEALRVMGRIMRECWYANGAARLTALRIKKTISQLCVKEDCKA

[2] = biological target: truncated ACVR1C-ECD with deletion of amino acids 68–113 (human); assay: as above

binding [1]: no binding
Molecule: truncated GREM1 with deletion of amino acids 100–157 (human) (domain or fragment)

binding [2]: no binding
B1: HA-mCherry-tagged GREM1 (Gremlin 1) (ligand, UniProt O60565-1 25-184)
chain: KKKGSQGAIPPPDKAQHNDSEQTQSPQQPGSRNRGRGQGRGTAMPGEEVLESSQEALHVTERKYLKRDWCKTQPLKQTIHEEGCNSRTIINRFCYGQCNSFYIPRHIRKEEGSFQSCSFCKPKKFTTMMVTLNCPELQPPTKKKRVTRVKQCRCISIDLD
